# Assay results reported in US11497706B2, “Antiperspirant and deodorant compositions” (The Procter & Gamble Company, priority 2017, dated 2022).
# At least one compound was matched to its structure with a doubt left.
# Test system: two key underarm bacteria strains
# Assay: Raw material microbial inhibition, summary in words
# Assay type: cell-based
# Settings: C. mucofaciens and S. epidermidis
# Source text: The data in Table 2 above was generated with the following test method.
smiles,measurement,value
N=C(N)c1ccc(OCCCCCCOc2ccc(C(=N)N)cc2)cc1 [hexamidine],performance against the bacteria as raw materials,perform particularly well
